Our source for the AC50 values is PubChem BioAssay AID493014 (National Center for Advancing Translational Sciences (NCATS), 2011).

Some of the results follow. Shown are side measurements of this screen, not its main read-out; they come without a call. The list favours compounds with an active or inconclusive main result. Potencies come from curve fits of mixed quality, noted in brackets.

The nature of the experiment: qHTS Assay to Find Inhibitors of Chronic Active B-Cell Receptor Signaling. Conditions: ABC-DLBCL IkBa-CBG/CBR reporter, luminescence ratio (green luciferase fused to IkBa over red control in TMD8 lymphoma cells), 4 h. In short, it runs like this: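 Compounds up to 46 uM were incubated four hours with TMD8 cells whose green CBG68 luciferase is fused to IkappaBalpha; red CBR luminescence normalised the signal, and concentration-effect curves were fitted to fusion, red and ratio data.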

Where [1] appears, read: measured here: CBR red luminescence, cell number.
Where [2] appears, read: measured here: IkBa-CBG green luminescence.

`Cn1nc(NC(=O)C(F)(F)F)c2ncc(-c3ccc(Cl)cc3)nc21`: the half-maximal activity concentration (AC50) – broadly, the concentration giving half of the maximal activity seen – under setting [1] was 2.51 µM [rising, full curve, poor fit].
Still for that read-out and setting: to `CCc1nc(Nc2cccc(O)c2)c2oc3ccccc3c2n1` belongs 2.24 µM [falling, partial curve]; to `Cc1ccc(C(=O)COC(=O)c2c(C)cc(=O)oc2C)cc1[N+](=O)[O-]`, 9.2 µM [rising, partial curve, poor fit]; to `COc1ccc(CNc2nc(C)c([N+](=O)[O-])c(C)c2C#N)cc1`, 6.51 µM [rising, full curve, poor fit].
With `Cc1cccc(NC(=O)Cn2nnc3sc4c(c3c2=O)CC(C)(C)OC4)c1`, under setting [1], the AC50 was 0.112 µM [rising, full curve, poor fit].
Still for that read-out and setting: to `O=C(c1ccc(F)cc1)N1CCN2C(=O)c3ccccc3C12c1ccccc1` (stereo not drawn) belongs 25.1 µM [falling, single point].
For the molecule `C=CCOc1c(Br)cc(CNc2ccc(NC(=O)C(C)C)cc2)cc1OCC`, the concentration at half-maximal activity (AC50) is 25.9 µM [rising, partial curve] under setting [1] and 23.1 µM [falling, single point] under setting [2].
`CCOc1ccccc1CN1CCC(n2nccc2NC(=O)C2CCCC2)CC1`: the AC50 under setting [1] was 11.2 µM [falling, partial curve].
`Cc1nnc(NC(=O)CSc2nnc(CC(=O)Nc3ccccc3Cl)n2C)s1`: under setting [1], the AC50 was 20 µM [rising, single point].
`O=S(=O)(c1ccc(Cl)c(Cl)c1)c1snnc1-c1ccccc1`: under setting [1], the AC50 is 18.4 µM [falling, partial curve].
Consider `Cc1ccc(S(=O)(=O)Nc2c(C)cc(C)nc2Cl)cc1`, for which, under setting [1], the AC50 is 5.62 µM [rising, single point].
The same measure, in the same setting: to `O=C(CP(=O)(c1ccccc1)c1ccccc1)Nc1nc2ccccc2s1` belongs 35.5 µM [falling, single point].
`CCCN(CCC)S(=O)(=O)c1ccc(C(=O)O)cc1`: the concentration at half-maximal activity (AC50) under setting [2] is 20.6 µM [rising, partial curve, poor fit].
Take `Cc1cc(N(C)C)ccc1N=Nc1ccc2ncccc2c1`: the AC50 under setting [1] was 3.16 µM [rising, partial curve] and the AC50 under setting [2] was 12.6 µM [falling, single point].
As to `Cc1ccc(C(=O)Nc2ccc3c(c2)OCO3)cc1S(=O)(=O)N1CCCCC1`, the AC50 under setting [1] was 8.2 µM [falling, partial curve, poor fit].
`CCC(NC(=O)c1ccccc1NC(=O)c1ccccc1)C(=O)NNC(=O)c1cccnc1` (stereo not drawn): under setting [1], the AC50 was 3.55 µM [rising, full curve].
The same measure, in the same setting: to `COc1ccccc1-n1c(CNC(=O)c2ccc(S(=O)(=O)N3CCOCC3)cc2)n[nH]c1=S` belongs 0.58 µM [falling, full curve].
With `CCOc1ccc(/C=N/n2cc(-c3ccccc3)[nH]c2=S)cc1`, under setting [2], the half-maximal activity concentration (AC50) was 4.47 µM [falling, single point].
As for `O=C(COc1ccc(F)cc1)Nc1nccs1`, under setting [1], the AC50 is 14.6 µM [falling, partial curve].
On to `COc1ccc2cc(CN(C(=O)Nc3ccccc3)C3CCCC3)c(=O)[nH]c2c1`, for which the AC50 is, setting by setting: under setting [1], 7.08 µM [falling, full curve]; under setting [2], 5.62 µM [rising, partial curve, poor fit].
With `COC(=O)c1scc(C)c1NC(=O)c1ccccc1F`, the AC50 under setting [1] is 3.55 µM [rising, full curve, poor fit].
For `N#Cc1c(-c2ccccc2)nc(SCC(=O)N(c2ccccc2)c2ccccc2)[nH]c1=O`, the AC50 is 29.1 µM [falling, single point] under setting [1] and 14.6 µM [rising, partial curve, poor fit] under setting [2].
In the case of `CCOC(=O)c1nc(Nc2ccccc2C)c2ccccc2n1`, the AC50 under setting [1] was 11.2 µM [rising, partial curve, poor fit].
With `Nc1nc(-c2ccccc2)c(-c2ccccc2)n1N`, under setting [1], the AC50 is 11.2 µM [falling, partial curve, poor fit].
Same read-out and setting: to `O=C(Nc1ccc(N2CCCC2)cc1)c1cccc(Cl)c1Cl` belongs 17.8 µM [falling, partial curve, poor fit].
Still for that read-out and setting: the value for `CCOc1ccccc1NC(=O)CSc1nc(=O)n(Cc2ccccn2)c2c1CCC2` was 2.06 µM [falling, full curve]; that for `Clc1ccc(C2=C3CCCCn4c(-c5ccccc5)c[n+](c43)C2)cc1` was 14.1 µM [falling, partial curve]; that for `COc1cccc2c3c(c(C)nc12)CCN3c1ccccc1` was 35.5 µM [falling, single point].
Still for that read-out and setting: to `Cc1ccc(NC(=O)CN(C)CC(=O)Nc2cccc(F)c2)cc1S(=O)(=O)N1CCCCCC1` belongs 11.2 µM [falling, partial curve, poor fit].
Consider `Cc1c(CCC(=O)N[C@@H](CC(C)C)C(=O)O)c(=O)oc2cc3oc4c(c3cc12)CCCC4`, for which the AC50 under setting [1] was 0.1 µM [rising, full curve, poor fit] and the AC50 under setting [2] was 7.08 µM [falling, full curve, poor fit].
On to `COc1ccc(CCN(C)C(=O)c2cc(-c3ccccc3)nc3ccccc23)cc1OC`, for which, under setting [1], the AC50 was 35.5 µM [falling, single point].
`CCCNC(=O)c1c(N)n(-c2cccc(OC)c2)c2nc3ccccc3nc12`: the AC50 under setting [1] was 7.08 µM [falling, partial curve, poor fit].
Regarding `O=C(COc1cccc2c1CCN(Cc1ccc(Cl)cc1)C2=O)N1CCOCC1`, under setting [1], the AC50 is 10 µM [falling, partial curve, poor fit].
Same read-out and setting: the value for `Cc1ccc(S(=O)(=O)N2CCOCC2)cc1C(=O)N(C)CCOc1ccc(Cl)cc1` was 11.2 µM [falling, partial curve, poor fit]; that for `COc1cccc(Nc2nnc(Cc3cccnc3)c3ccccc23)c1` was 35.5 µM [falling, single point]; that for `Cn1c(=O)c(-c2ccccc2N)nc2ccccc21` was 3.66 µM [rising, partial curve, poor fit].
Regarding `Cc1ccc(S(=O)(=O)N2C=CC(C(F)(F)F)=NCC2)cc1`, the AC50 under setting [1] was 2.06 µM [falling, single point].
As for `COc1ccc(NCc2nnc(SCC(=O)NCc3ccccc3)n2-c2ccccc2OC)cc1`, under setting [1], the AC50 was 16.4 µM [falling, partial curve, poor fit].
On to `COc1ccccc1Nc1nc2ccc(C)cc2n2cnnc12`, for which the AC50 under setting [1] was 2 µM [rising, full curve].
Consider `COC(=O)CNC(c1ccccc1)c1cc(C)ccc1NC(=O)c1cccc(Cl)c1` (stereo not drawn), for which the AC50 under setting [1] is 20.6 µM [falling, single point].
`CCCn1c(O)c(/C=C2\C=NN=C2c2ccccc2)sc1=S`: under setting [1], the AC50 is 0.708 µM [falling, full curve].
For the molecule `O=C(CSc1ccccc1)Nc1ccc2c(c1)OCCO2`, the AC50 under setting [1] is 15.8 µM [falling, single point].
Turning to `Cc1ccc(C(=O)Nc2cccc(C(=O)O)c2)cc1`, the AC50 under setting [1] is 1.84 µM [falling, full curve] and the AC50 under setting [2] is 16.4 µM [rising, partial curve, poor fit].
Turning to `CCCOc1ccccc1C1CC(=O)Nc2cc3c(cc21)OCCO3` (stereo not drawn), the AC50 under setting [1] was 20.6 µM [rising, partial curve] and the AC50 under setting [2] is 16.4 µM [falling, partial curve].
Take `COc1cccc(OC)c1C(=O)Nc1nc2ccc([N+](=O)[O-])cc2s1`: the AC50 under setting [1] was 15.8 µM [falling, single point].
Still for that read-out and setting: to `O=C(Nc1cccnc1)c1cnn2cccnc12` belongs 3.66 µM [falling, single point]; to `Cc1ccccc1C(=O)NNC(=S)NC(=O)c1ccc(Cl)cc1Cl`, 20.6 µM [falling, partial curve, poor fit]; to `COc1ccccc1CC(=O)Nc1ccc(S(=O)(=O)N2CC(C)CC(C)C2)cc1` (stereo not drawn), 4.11 µM [falling, full curve].
Turning to `CCOC(=O)c1ccc(Nc2nc(C(=O)OCC)nc3ccccc23)cc1`, under setting [1], the AC50 is 35.5 µM [falling, single point].
Consider `CCC(=O)Nc1cccc(-n2nnnc2SCC(=O)c2ccc(C)c(C)c2)c1`, for which, under setting [1], the AC50 is 3.26 µM [rising, partial curve, poor fit].
Still for that read-out and setting: to `O=C(Cn1cnc2ccccc2c1=O)NCC(=O)N1CCOCC1` belongs 35.5 µM [rising, single point].
Turning to `O=C(CNS(=O)(=O)c1ccccc1)NCC(=O)OCc1ccc(C(=O)c2ccccc2)cc1`, under setting [1], the concentration at half-maximal activity (AC50) is 16.4 µM [rising, partial curve, poor fit].
Consider `Cc1ccc(C)c(CN2C(=O)c3ccccc3S(=O)(=O)c3ccc(C(=O)N4CCN(C)CC4)cc32)c1`, for which, under setting [1], the AC50 is 15.8 µM [falling, single point].
As to `Cc1ccc(-n2ncc3c(N4CCC(C)CC4)ncnc32)cc1C`, the AC50 under setting [1] was 0.891 µM [rising, full curve, poor fit].
Consider `O=c1cc(N2CCCCC2)c(-c2ccccc2)nn1Cc1ccc(Cl)cc1Cl`, for which, under setting [1], the concentration at half-maximal activity (AC50) was 5.62 µM [rising, single point].
Take `CCCc1nn(C)c(C(=O)Nc2cccc3ccccc23)c1Cl`: the AC50 under setting [1] is 18.4 µM [falling, partial curve].
Still for that read-out and setting: to `N#CC1=C(N)Nc2nc3ccccc3n2C1c1ccc(F)cc1` (stereo not drawn) belongs 29.1 µM [falling, single point]; to `CC(C)(C)c1ccc(-c2noc(-c3ccno3)n2)cc1`, 25.1 µM [rising, partial curve, poor fit].
On to `CCOc1ccccc1NC(=O)CSc1nnc(Cc2cccn2C)n1-c1ccc(F)cc1`, for which the AC50 under setting [1] was 2.31 µM [falling, partial curve].
Same read-out and setting: to `CCOc1cc(/C=C2\SC(=Nc3ccc(F)cc3)N(c3ccc(F)cc3)C2=O)ccc1OCC(=O)O` belongs 8.91 µM [falling, partial curve, poor fit]; to `CCCCC(=O)Nc1cccc(NC(=O)c2ccc(Br)o2)c1`, 1.3 µM [falling, partial curve, poor fit].
